# Experimental data taken from the supplement of paper PMC8728848.
# This is one part of the list.
# B1: PX9961W-pdi-543-27-543 (Parabacteroides distasonis) (protein)
# chain: EGNATTTSYFLNDQQAIDAIDGLYERFHQEGCYGRELFWEQGAACDIVWGRTRGYNSLATLAYTGDESPLRDVFSRMYSTMSRANWIIQELVKKEKGTTLTAVEKRSLGEAYFSRGWAHYLIAYRYGTDKQGVPFVRYEDFPDDYDNSIPPQQATVMDNYKLIIEDMDKAIAYLPIFESYDADNRGRAHQAAAVAFKAKTYAYWATWDATQWNNVIEMVNQLENNYNRDLAPTFAELFSSDLKDYWNAEYLWTIPSIGGALPGGTEFPGIILENKGWGKYNGWGQMKPSYDIYEEMAKDGKGNDRLVRSILEYNQEFPFFGETRKFWSTSDLEAGFMINKYMDAFKYSDPVGEGAVSANGDWPTVRVNFPIIRFAEMLLFRAEAYLMTGQADKATADINRIRLRSNLTPLTGTATMKDLYHERRCELAFEFTDHLFDLKRWNRSSNADIKTLADKELNAHPRIRRYEDRANPESAFTIIGYEDYTNKNAYQAHMMVFPYPSEEITKSNGQLKQNEGY
# Tests used:
# Assay in all cases: glycan array binding signal (z-score within array); higher = stronger binding
# Settings in all cases: glycan notation: IUPAC condensed, linker removed
# [1] = target: Gal(b1-4)GlcNAc(b1-3)Gal(b1-4)GlcNAc(b1-3)Gal(b1-4)GlcNAc(b1-3)Gal(b1-4)GlcNAc(b1-2)Man(a1-3)[Gal(b1-4)GlcNAc(b1-3)Gal(b1-4)GlcNAc(b1-3)Gal(b1-4)GlcNAc(b1-3)Gal(b1-4)GlcNAc(b1-2)Man(a1-6)]Man(b1-4)GlcNAc(b1-4)[Fuc(a1-6)]GlcNAc
# In short: (§1)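 Glycan array data came from 3228 arrays in the Consortium for Functional Glycomics database, and only arrays with an available protein sequence were kept. Glycan names were put into IUPAC-condensed notation, and columns mapping to the same glycan were averaged. The binding signal is a within-array Z-score, averaged across arrays of one protein sequence run at different concentrations or buffers and across linkers. A negative Z-score can be read as non-binding.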
# [2] = target: Gal(b1-4)GlcNAc(b1-3)Gal(b1-4)GlcNAc(b1-3)Gal(b1-4)GlcNAc(b1-3)Gal(b1-4)GlcNAc(b1-2)[Gal(b1-4)GlcNAc(b1-3)Gal(b1-4)GlcNAc(b1-3)Gal(b1-4)GlcNAc(b1-3)Gal(b1-4)GlcNAc(b1-6)]Man(a1-6)[Gal(b1-4)GlcNAc(b1-3)Gal(b1-4)GlcNAc(b1-3)Gal(b1-4)GlcNAc(b1-3)Gal(b1-4)GlcNAc(b1-2)Man(a1-3)]Man(b1-4)GlcNAc(b1-4)[Fuc(a1-6)]GlcNAc
# In short: as §1
# [3] = target: Gal(b1-4)GlcNAc(b1-3)Gal(b1-4)GlcNAc(b1-3)Gal(b1-4)GlcNAc(b1-3)Gal(b1-4)GlcNAc(b1-3)Gal(b1-4)GlcNAc(b1-2)Man(a1-3)[Gal(b1-4)GlcNAc(b1-3)Gal(b1-4)GlcNAc(b1-3)Gal(b1-4)GlcNAc(b1-3)Gal(b1-4)GlcNAc(b1-3)Gal(b1-4)GlcNAc(b1-2)Man(a1-6)]Man(b1-4)GlcNAc(b1-4)GlcNAc
# In short: as §1
# [4] = target: Gal(b1-4)GlcNAc(b1-3)Gal(b1-4)GlcNAc(b1-3)Gal(b1-4)GlcNAc(b1-3)Gal(b1-4)GlcNAc(b1-3)Gal(b1-4)GlcNAc(b1-2)Man(a1-3)[Gal(b1-4)GlcNAc(b1-3)Gal(b1-4)GlcNAc(b1-3)Gal(b1-4)GlcNAc(b1-3)Gal(b1-4)GlcNAc(b1-3)Gal(b1-4)GlcNAc(b1-2)Man(a1-6)]Man(b1-4)GlcNAc(b1-4)[Fuc(a1-6)]GlcNAc
# In short: as §1
# [5] = target: Gal(b1-4)GlcNAc(b1-3)Gal(b1-4)GlcNAc(b1-3)Gal(b1-4)GlcNAc(b1-3)Gal(b1-4)GlcNAc(b1-3)Gal(b1-4)GlcNAc(b1-2)[Gal(b1-4)GlcNAc(b1-3)Gal(b1-4)GlcNAc(b1-3)Gal(b1-4)GlcNAc(b1-3)Gal(b1-4)GlcNAc(b1-3)Gal(b1-4)GlcNAc(b1-6)]Man(a1-6)[Gal(b1-4)GlcNAc(b1-3)Gal(b1-4)GlcNAc(b1-3)Gal(b1-4)GlcNAc(b1-3)Gal(b1-4)GlcNAc(b1-3)Gal(b1-4)GlcNAc(b1-2)Man(a1-3)]Man(b1-4)GlcNAc(b1-4)[Fuc(a1-6)]GlcNAc
# In short: as §1
# [6] = target: Gal(b1-4)GlcNAc(b1-3)Gal(b1-4)GlcNAc(b1-3)Gal(b1-4)GlcNAc(b1-3)Gal(b1-4)GlcNAc(b1-3)Gal(b1-4)GlcNAc(b1-3)Gal(b1-4)GlcNAc(b1-2)Man(a1-3)[Gal(b1-4)GlcNAc(b1-3)Gal(b1-4)GlcNAc(b1-3)Gal(b1-4)GlcNAc(b1-3)Gal(b1-4)GlcNAc(b1-3)Gal(b1-4)GlcNAc(b1-3)Gal(b1-4)GlcNAc(b1-2)Man(a1-6)]Man(b1-4)GlcNAc(b1-4)GlcNAc
# In short: as §1
# [7] = target: Gal(b1-4)GlcNAc(b1-3)Gal(b1-4)GlcNAc(b1-3)GalNAc
# In short: as §1
# [8] = target: Gal(b1-4)GlcNAc(b1-3)Gal(b1-4)GlcNAc(b1-3)[Gal(b1-4)GlcNAc(b1-3)Gal(b1-4)GlcNAc(b1-6)]GalNAc
# In short: as §1
# [9] = target: Gal(b1-4)GlcNAc(b1-3)Gal(b1-4)GlcNAc(b1-6)[Gal(b1-3)]GalNAc
# In short: as §1
# [10] = target: Gal(b1-4)GlcNAc(b1-3)Gal(b1-4)[Fuc(a1-3)]GlcNAc(b1-3)Gal(b1-4)[Fuc(a1-3)]GlcNAc
# In short: as §1
# [11] = target: Gal(b1-4)GlcNAc(b1-3)GalNAc
# In short: as §1
# [12] = target: Gal(b1-4)GlcNAc(b1-3)[Fuc(a1-3)GlcNAc(b1-6)]Gal(b1-4)Glc
# In short: as §1
# [13] = target: Gal(b1-4)GlcNAc(b1-3)[Gal(b1-4)GlcNAc(b1-6)]Gal(b1-4)GlcNAc
# In short: as §1
# [14] = target: Gal(b1-4)GlcNAc(b1-3)[GlcNAc(b1-6)]Gal(b1-4)GlcNAc
# In short: as §1
# [15] = target: Gal(b1-4)GlcNAc(b1-6)Gal(b1-4)GlcNAc
# In short: as §1
# [16] = target: Gal(b1-4)GlcNAc(b1-6)GalNAc
# In short: as §1
# [17] = target: Gal(b1-4)GlcNAc(b1-6)[Gal(b1-3)]GalNAc
# In short: as §1
# [18] = target: Gal(b1-4)GlcNAc(b1-6)[Gal(b1-4)GlcNAc(b1-3)]GalNAc
# In short: as §1
# Gal(b1-4)GlcNAc6P = target: Gal(b1-4)GlcNAc6P
# In short: as §1
# Gal(b1-6)Gal = target: Gal(b1-6)Gal
# In short: as §1
# Gal3S(b1-3)GalNAc = target: Gal3S(b1-3)GalNAc
# In short: as §1
# Gal3S(b1-3)GlcNAc = target: Gal3S(b1-3)GlcNAc
# In short: as §1
# [19] = target: Gal3S(b1-3)[Fuc(a1-4)]GlcNAc
# In short: as §1
binder,measurement,setting,value
B1,glycan array binding signal (z-score),[1],0.259
same,glycan array binding signal (z-score),[2],0.578
same,glycan array binding signal (z-score),[3],0.744
same,glycan array binding signal (z-score),[4],0.35
same,glycan array binding signal (z-score),[5],2.95
same,glycan array binding signal (z-score),[6],0.402
same,glycan array binding signal (z-score),[7],-0.639
same,glycan array binding signal (z-score),[8],-0.268
same,glycan array binding signal (z-score),[9],-0.638
same,glycan array binding signal (z-score),[10],1.86
same,glycan array binding signal (z-score),[11],-0.238
same,glycan array binding signal (z-score),[12],-0.958
same,glycan array binding signal (z-score),[13],-0.075
same,glycan array binding signal (z-score),[14],-1.13
same,glycan array binding signal (z-score),[15],-0.586
same,glycan array binding signal (z-score),[16],0.97
same,glycan array binding signal (z-score),[17],-0.001
same,glycan array binding signal (z-score),[18],1.05
same,glycan array binding signal (z-score),Gal(b1-4)GlcNAc6P,0.296
same,glycan array binding signal (z-score),Gal(b1-6)Gal,0.182
same,glycan array binding signal (z-score),Gal3S(b1-3)GalNAc,-0.868
same,glycan array binding signal (z-score),Gal3S(b1-3)GlcNAc,0.28
same,glycan array binding signal (z-score),[19],0.065

# Shown as tab-separated lines: entries from further up.
binder	measurement	setting	value
B1	glycan array binding signal (z-score)	[15]	-0.586
same	glycan array binding signal (z-score)	[16]	0.97
